Measured values reported in patent publication EP1782809A1, “Use of ligands of PPARGamma for inducing foetal lung maturity and the prevention of the respiratory-distress syndrome in premature infants” (Charité-Universitätsmedizin Berlin, priority 2005, dated 2007).
At least one structure is not confirmed: it was looked up by name or label, or the drawing left a doubt.

Assays:
[1] = tested on: type II - alveolar cells; details: direct administration of pioglitazone to knock-out mice; Biochimica et Biophysica Acta 1636, 2004, 196-204; cited from earlier work
[2] = tested on: ABCA3; assay: Fluorescence microscopy (immunostaining) of foetal lung sections after antenatal feeding; assay type: in vivo, Wistar rats; details: day 19.5, antenatal administration of pioglitazone vs placebo (Figure 2)
[3] = tested on: SP-B; assay: Real-time quantitative PCR of surfactant apoprotein mRNA in foetal lung after antenatal feeding; assay type: in vivo, Wistar rats
[4] = tested on: SP-C; assay: as above; assay type: in vivo, Wistar rats
[5] = day 18.5 of gestation (not shown)

For `CCc1ccc(CCOc2ccc(CC3SC(=O)NC3=O)cc2)nc1` (stereo not drawn) [pioglitazone], the lipid turnover [1] is listed as “increased up to the level of the control organisms”, the “expression of ABCA3” value [2] is listed as “can clearly be detected” and the “increase of the expression of the SP-B-encoding mRNA” value [3, 5] is listed as “not observed”. The “expression of the SP-B-encoding mRNA” value ([3]; day 19.5 of gestation, antenatal diet with 0.25 g/kg pioglitazone from day 14.5, vs placebo (Figure 1), effect particularly pronounced in SP-B) was “drastic increase”, the “increase of the expression of the SP-C-encoding mRNA” value [4, 5] was “not observed” and the “expression of the SP-C-encoding mRNA” value ([4]; day 19.5 of gestation, antenatal diet with 0.25 g/kg pioglitazone from day 14.5, vs placebo (Figure 1)) was “drastic increase”.
